# Results are given in words; binding and its absence hold for the method and conditions named. Binding seen in cells or lysates may run through a third protein. Some entries that bind do so weakly or less than the wild type. For part of these data: Sequences can lack the tags named with a protein.
# Sequences of proteins named here, by UniProt entry; tags and fusion partners are left off. A change or cut given only in a name is not applied to a line headed by its entry.
# UniProt Q16513: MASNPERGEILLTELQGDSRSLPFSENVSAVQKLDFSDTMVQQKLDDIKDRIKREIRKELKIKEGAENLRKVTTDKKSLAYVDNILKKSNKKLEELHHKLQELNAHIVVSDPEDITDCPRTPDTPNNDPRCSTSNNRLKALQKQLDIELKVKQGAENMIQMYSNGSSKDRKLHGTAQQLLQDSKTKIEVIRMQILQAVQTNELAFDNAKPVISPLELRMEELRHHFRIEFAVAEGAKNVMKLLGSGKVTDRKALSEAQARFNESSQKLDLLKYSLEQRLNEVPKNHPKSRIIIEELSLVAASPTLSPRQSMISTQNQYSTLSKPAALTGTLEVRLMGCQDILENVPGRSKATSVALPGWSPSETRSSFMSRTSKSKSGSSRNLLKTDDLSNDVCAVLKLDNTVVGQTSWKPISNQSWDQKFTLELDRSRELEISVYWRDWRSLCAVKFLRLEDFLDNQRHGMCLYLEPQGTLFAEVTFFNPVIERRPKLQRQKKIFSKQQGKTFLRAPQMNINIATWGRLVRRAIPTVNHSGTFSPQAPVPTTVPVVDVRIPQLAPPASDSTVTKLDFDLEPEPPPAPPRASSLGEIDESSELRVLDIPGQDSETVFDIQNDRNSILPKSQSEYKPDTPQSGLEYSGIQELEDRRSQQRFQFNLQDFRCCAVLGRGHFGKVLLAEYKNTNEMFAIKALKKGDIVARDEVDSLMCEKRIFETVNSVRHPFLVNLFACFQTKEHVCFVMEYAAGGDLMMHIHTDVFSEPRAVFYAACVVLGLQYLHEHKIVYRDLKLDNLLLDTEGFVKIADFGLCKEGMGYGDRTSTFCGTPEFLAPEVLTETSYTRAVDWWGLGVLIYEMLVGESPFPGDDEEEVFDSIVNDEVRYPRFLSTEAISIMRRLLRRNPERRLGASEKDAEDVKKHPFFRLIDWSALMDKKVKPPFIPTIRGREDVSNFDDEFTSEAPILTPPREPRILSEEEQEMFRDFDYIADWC
# T1: Cdo (cell adhesion molecule-related downregulated by oncogene), full length (rat) (UniProt O35158)
# T1 sequence: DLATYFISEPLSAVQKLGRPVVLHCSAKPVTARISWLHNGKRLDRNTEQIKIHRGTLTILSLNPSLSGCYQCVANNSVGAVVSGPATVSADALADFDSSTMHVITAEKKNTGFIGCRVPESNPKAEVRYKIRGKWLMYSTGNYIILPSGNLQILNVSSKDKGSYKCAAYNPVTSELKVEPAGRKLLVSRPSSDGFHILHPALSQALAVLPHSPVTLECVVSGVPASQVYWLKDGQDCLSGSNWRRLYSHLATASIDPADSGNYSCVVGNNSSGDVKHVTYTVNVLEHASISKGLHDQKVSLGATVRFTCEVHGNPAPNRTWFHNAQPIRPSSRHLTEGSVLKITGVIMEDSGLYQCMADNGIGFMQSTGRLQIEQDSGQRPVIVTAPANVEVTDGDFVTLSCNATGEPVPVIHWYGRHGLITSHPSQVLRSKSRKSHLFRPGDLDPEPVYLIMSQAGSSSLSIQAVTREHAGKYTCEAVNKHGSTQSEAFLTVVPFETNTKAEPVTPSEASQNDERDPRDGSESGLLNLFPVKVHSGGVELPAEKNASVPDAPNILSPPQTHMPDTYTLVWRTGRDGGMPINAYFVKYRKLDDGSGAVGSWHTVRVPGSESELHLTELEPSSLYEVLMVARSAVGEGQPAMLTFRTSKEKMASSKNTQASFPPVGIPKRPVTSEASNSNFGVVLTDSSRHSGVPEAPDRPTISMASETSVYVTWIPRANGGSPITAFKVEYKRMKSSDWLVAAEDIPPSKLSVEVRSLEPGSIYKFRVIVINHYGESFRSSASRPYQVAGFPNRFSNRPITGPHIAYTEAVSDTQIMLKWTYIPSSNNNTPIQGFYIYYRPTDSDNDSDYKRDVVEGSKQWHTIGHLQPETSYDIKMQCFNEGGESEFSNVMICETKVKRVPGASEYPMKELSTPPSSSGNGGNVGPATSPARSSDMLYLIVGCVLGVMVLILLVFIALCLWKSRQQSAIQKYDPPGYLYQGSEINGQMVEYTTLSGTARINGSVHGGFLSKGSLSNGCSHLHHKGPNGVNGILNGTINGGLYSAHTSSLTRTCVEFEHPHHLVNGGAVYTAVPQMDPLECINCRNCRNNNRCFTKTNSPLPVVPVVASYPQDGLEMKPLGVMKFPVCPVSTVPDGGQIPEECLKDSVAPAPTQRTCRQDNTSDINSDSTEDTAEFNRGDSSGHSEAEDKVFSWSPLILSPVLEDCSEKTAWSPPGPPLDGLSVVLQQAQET
# T2: APPL1, full-length construct with no tag named (UniProt Q9UKG1)
# T2 sequence: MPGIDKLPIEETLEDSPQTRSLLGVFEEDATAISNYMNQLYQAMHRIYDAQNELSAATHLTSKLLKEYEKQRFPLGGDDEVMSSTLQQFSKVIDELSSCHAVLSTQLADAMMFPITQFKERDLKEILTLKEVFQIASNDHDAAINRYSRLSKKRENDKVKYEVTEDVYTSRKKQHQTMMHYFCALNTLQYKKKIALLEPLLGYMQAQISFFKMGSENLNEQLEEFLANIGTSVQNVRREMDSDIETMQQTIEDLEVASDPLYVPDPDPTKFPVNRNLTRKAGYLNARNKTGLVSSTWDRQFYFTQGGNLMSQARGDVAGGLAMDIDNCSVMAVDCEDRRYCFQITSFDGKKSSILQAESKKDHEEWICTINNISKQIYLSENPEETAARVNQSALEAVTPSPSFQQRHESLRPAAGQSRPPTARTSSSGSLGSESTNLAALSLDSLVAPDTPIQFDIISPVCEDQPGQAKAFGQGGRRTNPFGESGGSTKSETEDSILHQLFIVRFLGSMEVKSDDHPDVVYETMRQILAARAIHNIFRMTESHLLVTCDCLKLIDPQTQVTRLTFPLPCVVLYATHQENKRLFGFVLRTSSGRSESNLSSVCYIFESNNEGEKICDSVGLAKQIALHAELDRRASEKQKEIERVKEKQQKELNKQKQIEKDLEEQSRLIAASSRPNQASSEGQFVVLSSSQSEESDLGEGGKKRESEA
# Assays:
# [1] = target: T1, Cdo (cell adhesion molecule-related downregulated by oncogene), full length (rat); assay: co-IP; 293T cells transiently co-transfected; lysates immunoprecipitated with an antibody to Cdo, blotted for PKN2 or GST (Figures 2a, 2g)
# [2] = target: T2, APPL1, full-length construct with no tag named; assay: co-IP; 293T cells transiently co-transfected with APPL1 and GST-tagged PKN2 constructs; lysates immunoprecipitated with APPL1 antibody, blotted for GST (Figure 5a)
# [3] = target: GST-tagged full-length PKN2 (AA1-984) (human) (UniProt Q16513); assay: co-IP; 293T cells transiently co-transfected; lysates immunoprecipitated with PKN2 antibodies, blotted for Cdo (Figure 2e) or HA (Figure 5b)
# [4] = target: PKN2 (protein kinase C-related kinase 2), expression vector with no tag named (human) (UniProt Q16513); assay: as above
Molecule,binding [1],binding [2],binding [3],further results
GST-PKN2/839-900 (from UniProt Q16513 839-900) (domain or fragment),,binds,,
GST-PKN2/573-984 (from UniProt Q16513 573-984) (domain or fragment),binds,binds weakly,,
GST-PKN2 AA900-984 (from UniProt Q16513 900-984) (domain or fragment),binds,,,
GST-PKN2/1-507 (from UniProt Q16513 1-507) (domain or fragment),no binding,no binding,,
"CdoΔ986-1048 (receptor, UniProt O35158) DLATYFISEPLSAVQKLGRPVVLHCSAKPVTARISWLHNGKRLDRNTEQIKIHRGTLTILSLNPSLSGCYQCVANNSVGAVVSGPATVSADALADFDSSTMHVITAEKKNTGFIGCRVPESNPKAEVRYKIRGKWLMYSTGNYIILPSGNLQILNVSSKDKGSYKCAAYNPVTSELKVEPAGRKLLVSRPSSDGFHILHPALSQALAVLPHSPVTLECVVSGVPASQVYWLKDGQDCLSGSNWRRLYSHLATASIDPADSGNYSCVVGNNSSGDVKHVTYTVNVLEHASISKGLHDQKVSLGATVRFTCEVHGNPAPNRTWFHNAQPIRPSSRHLTEGSVLKITGVIMEDSGLYQCMADNGIGFMQSTGRLQIEQDSGQRPVIVTAPANVEVTDGDFVTLSCNATGEPVPVIHWYGRHGLITSHPSQVLRSKSRKSHLFRPGDLDPEPVYLIMSQAGSSSLSIQAVTREHAGKYTCEAVNKHGSTQSEAFLTVVPFETNTKAEPVTPSEASQNDERDPRDGSESGLLNLFPVKVHSGGVELPAEKNASVPDAPNILSPPQTHMPDTYTLVWRTGRDGGMPINAYFVKYRKLDDGSGAVGSWHTVRVPGSESELHLTELEPSSLYEVLMVARSAVGEGQPAMLTFRTSKEKMASSKNTQASFPPVGIPKRPVTSEASNSNFGVVLTDSSRHSGVPEAPDRPTISMASETSVYVTWIPRANGGSPITAFKVEYKRMKSSDWLVAAEDIPPSKLSVEVRSLEPGSIYKFRVIVINHYGESFRSSASRPYQVAGFPNRFSNRPITGPHIAYTEAVSDTQIMLKWTYIPSSNNNTPIQGFYIYYRPTDSDNDSDYKRDVVEGSKQWHTIGHLQPETSYDIKMQCFNEGGESEFSNVMICETKVKRVPGASEYPMKELSTPPSSSGNGGNVGPATSPARSSDMLYLIVGCVLGVMVLILLVFIALCLKGPNGVNGILNGTINGGLYSAHTSSLTRTCVEFEHPHHLVNGGAVYTAVPQMDPLECINCRNCRNNNRCFTKTNSPLPVVPVVASYPQDGLEMKPLGVMKFPVCPVSTVPDGGQIPEECLKDSVAPAPTQRTCRQDNTSDINSDSTEDTAEFNRGDSSGHSEAEDKVFSWSPLILSPVLEDCSEKTAWSPPGPPLDGLSVVLQQAQET",,,,binding [4]: no binding
"HA-tagged full-length APPL1 (protein, UniProt Q9UKG1 1-709) MPGIDKLPIEETLEDSPQTRSLLGVFEEDATAISNYMNQLYQAMHRIYDAQNELSAATHLTSKLLKEYEKQRFPLGGDDEVMSSTLQQFSKVIDELSSCHAVLSTQLADAMMFPITQFKERDLKEILTLKEVFQIASNDHDAAINRYSRLSKKRENDKVKYEVTEDVYTSRKKQHQTMMHYFCALNTLQYKKKIALLEPLLGYMQAQISFFKMGSENLNEQLEEFLANIGTSVQNVRREMDSDIETMQQTIEDLEVASDPLYVPDPDPTKFPVNRNLTRKAGYLNARNKTGLVSSTWDRQFYFTQGGNLMSQARGDVAGGLAMDIDNCSVMAVDCEDRRYCFQITSFDGKKSSILQAESKKDHEEWICTINNISKQIYLSENPEETAARVNQSALEAVTPSPSFQQRHESLRPAAGQSRPPTARTSSSGSLGSESTNLAALSLDSLVAPDTPIQFDIISPVCEDQPGQAKAFGQGGRRTNPFGESGGSTKSETEDSILHQLFIVRFLGSMEVKSDDHPDVVYETMRQILAARAIHNIFRMTESHLLVTCDCLKLIDPQTQVTRLTFPLPCVVLYATHQENKRLFGFVLRTSSGRSESNLSSVCYIFESNNEGEKICDSVGLAKQIALHAELDRRASEKQKEIERVKEKQQKELNKQKQIEKDLEEQSRLIAASSRPNQASSEGQFVVLSSSQSEESDLGEGGKKRESEA",,,binds,
"HA-APPL1 AA265-709 (domain or fragment, UniProt Q9UKG1 265-709) DPDPTKFPVNRNLTRKAGYLNARNKTGLVSSTWDRQFYFTQGGNLMSQARGDVAGGLAMDIDNCSVMAVDCEDRRYCFQITSFDGKKSSILQAESKKDHEEWICTINNISKQIYLSENPEETAARVNQSALEAVTPSPSFQQRHESLRPAAGQSRPPTARTSSSGSLGSESTNLAALSLDSLVAPDTPIQFDIISPVCEDQPGQAKAFGQGGRRTNPFGESGGSTKSETEDSILHQLFIVRFLGSMEVKSDDHPDVVYETMRQILAARAIHNIFRMTESHLLVTCDCLKLIDPQTQVTRLTFPLPCVVLYATHQENKRLFGFVLRTSSGRSESNLSSVCYIFESNNEGEKICDSVGLAKQIALHAELDRRASEKQKEIERVKEKQQKELNKQKQIEKDLEEQSRLIAASSRPNQASSEGQFVVLSSSQSEESDLGEGGKKRESEA",,,binds,

# Second part, led by results:
binding [1],binding [2],binding [3],Molecule,further results
binds,,,"PKN2 (protein kinase C-related kinase 2), expression vector with no tag named (from UniProt Q16513 1-984) (enzyme)",
binds,binds,,GST-tagged full-length PKN2 (AA1-984) (from UniProt Q16513 1-984) (enzyme),
,,no binding,"HA-APPL1/1-273 (domain or fragment, UniProt Q9UKG1 1-273) MPGIDKLPIEETLEDSPQTRSLLGVFEEDATAISNYMNQLYQAMHRIYDAQNELSAATHLTSKLLKEYEKQRFPLGGDDEVMSSTLQQFSKVIDELSSCHAVLSTQLADAMMFPITQFKERDLKEILTLKEVFQIASNDHDAAINRYSRLSKKRENDKVKYEVTEDVYTSRKKQHQTMMHYFCALNTLQYKKKIALLEPLLGYMQAQISFFKMGSENLNEQLEEFLANIGTSVQNVRREMDSDIETMQQTIEDLEVASDPLYVPDPDPTKFPV",
,,binds,"HA-APPL1 AA1-499 (domain or fragment, UniProt Q9UKG1 1-499) MPGIDKLPIEETLEDSPQTRSLLGVFEEDATAISNYMNQLYQAMHRIYDAQNELSAATHLTSKLLKEYEKQRFPLGGDDEVMSSTLQQFSKVIDELSSCHAVLSTQLADAMMFPITQFKERDLKEILTLKEVFQIASNDHDAAINRYSRLSKKRENDKVKYEVTEDVYTSRKKQHQTMMHYFCALNTLQYKKKIALLEPLLGYMQAQISFFKMGSENLNEQLEEFLANIGTSVQNVRREMDSDIETMQQTIEDLEVASDPLYVPDPDPTKFPVNRNLTRKAGYLNARNKTGLVSSTWDRQFYFTQGGNLMSQARGDVAGGLAMDIDNCSVMAVDCEDRRYCFQITSFDGKKSSILQAESKKDHEEWICTINNISKQIYLSENPEETAARVNQSALEAVTPSPSFQQRHESLRPAAGQSRPPTARTSSSGSLGSESTNLAALSLDSLVAPDTPIQFDIISPVCEDQPGQAKAFGQGGRRTNPFGESGGSTKSETEDSILH",
,,binds weakly,"HA-APPL1/486-709 (domain or fragment, UniProt Q9UKG1 486-709) GGSTKSETEDSILHQLFIVRFLGSMEVKSDDHPDVVYETMRQILAARAIHNIFRMTESHLLVTCDCLKLIDPQTQVTRLTFPLPCVVLYATHQENKRLFGFVLRTSSGRSESNLSSVCYIFESNNEGEKICDSVGLAKQIALHAELDRRASEKQKEIERVKEKQQKELNKQKQIEKDLEEQSRLIAASSRPNQASSEGQFVVLSSSQSEESDLGEGGKKRESEA",
